# From paper doi:10.1101/2024.10.01.616066
# Chains of the proteins cited; added tags and fusions are not shown. Lines headed by an entry give the natural chain unless they say otherwise; changes in a name come on top.
# UniProt O43524: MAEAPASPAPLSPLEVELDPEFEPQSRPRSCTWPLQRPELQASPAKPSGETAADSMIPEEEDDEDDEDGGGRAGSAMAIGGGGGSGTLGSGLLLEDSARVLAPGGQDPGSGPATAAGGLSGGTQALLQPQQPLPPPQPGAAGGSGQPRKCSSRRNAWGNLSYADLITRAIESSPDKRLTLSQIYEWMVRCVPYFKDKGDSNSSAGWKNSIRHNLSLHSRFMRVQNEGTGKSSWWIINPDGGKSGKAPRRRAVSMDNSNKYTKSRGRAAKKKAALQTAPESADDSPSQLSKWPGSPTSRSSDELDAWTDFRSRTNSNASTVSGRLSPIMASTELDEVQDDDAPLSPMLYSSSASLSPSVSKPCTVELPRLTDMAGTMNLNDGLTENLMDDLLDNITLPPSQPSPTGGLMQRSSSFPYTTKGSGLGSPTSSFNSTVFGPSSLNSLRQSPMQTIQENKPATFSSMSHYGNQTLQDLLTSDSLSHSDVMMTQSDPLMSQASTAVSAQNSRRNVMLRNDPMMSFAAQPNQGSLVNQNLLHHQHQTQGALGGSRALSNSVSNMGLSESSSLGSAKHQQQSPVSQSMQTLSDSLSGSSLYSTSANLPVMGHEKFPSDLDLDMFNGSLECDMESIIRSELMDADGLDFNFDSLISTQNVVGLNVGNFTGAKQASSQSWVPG
# UniProt Q9H6Z9: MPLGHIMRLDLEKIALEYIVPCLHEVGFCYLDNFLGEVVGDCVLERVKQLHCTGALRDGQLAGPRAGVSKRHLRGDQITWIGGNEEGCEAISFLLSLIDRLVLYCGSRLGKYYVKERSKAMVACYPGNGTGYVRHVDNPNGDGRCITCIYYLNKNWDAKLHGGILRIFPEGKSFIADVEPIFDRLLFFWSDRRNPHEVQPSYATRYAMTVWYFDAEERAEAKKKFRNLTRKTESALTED
# Like-named read-outs stand apart in the source and are kept apart here. Results are given in words; binding and its absence hold for the method and conditions named. In cells and extracts the contact can be indirect. Some entries that bind do so weakly or less than the wild type.
# Columns and labels:
# Assay in all cases: co-IP
# [1] = target: wildtype (WT) FOXO3-FLAG (UniProt O43524)
# [2] = target: P426A/P437A mutant (2P-A) FOXO3-FLAG (UniProt O43524)
# [3] = target: P426A/P437A mutant (2P-A) FOXO3-FLAG (UniProt O43524); remark: listed apart in the source
substance,measurement,setting,value
PHD3-V5 (from UniProt Q9H6Z9 1-239) (enzyme),binding,[1],binds
same,binding,[2],binds
same,binding,[3],no binding (condition: without DMOG)
